The target in this assay is heat shock protein 70 (Scylla paramamosain (endogenous in mud crab hemocytes)) (UniProt B3VKG9). In words: affinity purification with mass spectrometry; mud crab hemocyte lysate, Co-IP with anti-HSP70 IgG or anti-TRAF6 IgG on Protein G-agarose beads, 4°C overnight, eluted with 0.1M glycine, SDS-PAGE and LC-MS/MS.

Sequences of proteins named here, by UniProt entry; tags and fusion partners are left off.
UniProt B3VKG9: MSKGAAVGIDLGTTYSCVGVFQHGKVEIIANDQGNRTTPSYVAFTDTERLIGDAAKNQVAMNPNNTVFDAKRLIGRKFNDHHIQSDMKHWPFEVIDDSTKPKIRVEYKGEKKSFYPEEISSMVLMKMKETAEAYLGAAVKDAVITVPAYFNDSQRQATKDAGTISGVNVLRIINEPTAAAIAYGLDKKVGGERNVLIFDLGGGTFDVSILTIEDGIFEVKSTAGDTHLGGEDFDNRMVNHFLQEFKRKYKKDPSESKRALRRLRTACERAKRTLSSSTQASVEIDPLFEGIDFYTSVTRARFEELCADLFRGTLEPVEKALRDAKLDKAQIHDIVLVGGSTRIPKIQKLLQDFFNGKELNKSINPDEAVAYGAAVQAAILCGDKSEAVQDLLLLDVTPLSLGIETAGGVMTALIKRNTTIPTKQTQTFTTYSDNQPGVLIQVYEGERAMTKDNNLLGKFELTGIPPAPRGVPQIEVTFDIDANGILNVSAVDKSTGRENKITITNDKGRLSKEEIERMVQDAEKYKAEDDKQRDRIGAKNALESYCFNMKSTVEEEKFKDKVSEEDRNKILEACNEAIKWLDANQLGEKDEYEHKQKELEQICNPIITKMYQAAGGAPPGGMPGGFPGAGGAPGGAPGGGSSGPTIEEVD
UniProt A0A0F7W424: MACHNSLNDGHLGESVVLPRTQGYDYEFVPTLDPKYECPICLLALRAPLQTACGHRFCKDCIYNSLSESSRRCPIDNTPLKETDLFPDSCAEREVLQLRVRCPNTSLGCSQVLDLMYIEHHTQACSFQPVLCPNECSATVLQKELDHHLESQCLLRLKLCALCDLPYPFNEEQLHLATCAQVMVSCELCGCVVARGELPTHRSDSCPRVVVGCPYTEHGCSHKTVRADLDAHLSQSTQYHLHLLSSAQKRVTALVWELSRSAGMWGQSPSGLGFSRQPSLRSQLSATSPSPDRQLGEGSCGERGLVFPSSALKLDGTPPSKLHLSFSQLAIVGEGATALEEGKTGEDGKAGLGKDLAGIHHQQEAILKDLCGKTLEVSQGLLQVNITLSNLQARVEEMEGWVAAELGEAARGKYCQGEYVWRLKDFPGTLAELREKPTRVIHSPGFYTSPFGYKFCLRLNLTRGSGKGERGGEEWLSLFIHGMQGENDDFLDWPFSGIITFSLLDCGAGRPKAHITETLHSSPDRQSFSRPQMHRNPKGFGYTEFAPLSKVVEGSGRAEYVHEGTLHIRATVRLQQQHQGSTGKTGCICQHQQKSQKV

Results are given in words; binding and its absence hold for the method and conditions named. In cells and extracts the contact can be indirect. A yes stands for co-enrichment or nearness to the bait. Other partners may have been found.

Take “TNF receptor associated factor 6 (from UniProt A0A0F7W424 1-598)”: the binding result was “binds”.

The values are drawn from PMC8382196.
